Like-named read-outs stand apart in the source and are kept apart here. These are yes or no findings as the source states them, for the method shown. In cells and extracts the contact can be indirect. Here binding means that the protein was enriched with, or labelled near, the bait; the list need not be complete. For some of these results: A no says only that the protein was not detected with the bait.
B1: DNAAF4 (protein, UniProt Q8R368 1-420)
chain: MPVRVSEFSWQQTPATIFLSLPLRGVCVRDADVFCGESYLKVNFPPFLFELFLYAPIDDGKSKAKIGNDTILFTLYKKEPVLWDSLSVPGVDKEMMQRIREKSILQAQEKAKEATEAKAVAKREDQRYALGEMMKIEEEERKKIEDMKENERKKATSELEAWKECQKKADGQKRVQRKEKPLEGKQAEETKALKPRGLPRKAPPTRLPTRGRNWENIFPEKLKEDRVPAPRSAGSIQISFTPRVFPTALRESQVAEEEEWLHKQAEARRAMSTDLPEFFDLKEEERNPDWLKDKGNKLFATENYLAAVDAYNLAIRLNCKIPLLYLNRAACHLKLKNLHKAIEDSSKALELLTPPVADNANARMKAHVRRGTAFCQLELYVEGLQDYEAALKIDPANTVVQNDAEKIRNIIQGTALKSRD
B2: MYL6 (protein, UniProt Q60605 1-151)
chain: MCDFTEDQTAEFKEAFQLFDRTGDGKILYSQCGDVMRALGQNPTNAEVLKVLGNPKSDEMNVKVLDFEHFLPMLQTVAKNKDQGTYEDYVEGLRVFDKEGNGTVMGAEIRHVLVTLGEKMTEEEVEMLVAGHEDSNGCINYEAFVRHILSG
B3: FABP9 (protein, UniProt O08716 1-132)
chain: MIEPFLGTWKLISSENFENYVRELGVECEPRKVACLIKPSVSISFNGERMDIQAGSACRNTEISFKLGEEFEETTADNRKVKSLITFEGGSMIQVQKWLGKQTTIKRKIVDGKMVVECTMNNVVSTRIYERV
B4: KATNAL2 (protein, UniProt Q9D3R6 1-539)
chain: MELSYQTLKLTHQAREAYEMRTEARRKNLLILILHYLTQEGYMDAAKALEEETKLGLRRFEVCDNVDLETILMEYESYYFVKFQKYPKVVKKAPDPVENNLPSRSGGKNKRLTNDSCQNLPKICHQKSRPKTSAVKTGDTKSVKEHLKQVKESVTDTQAESTDFGLNISKIHKDQPEEKAQPRRGQIIDFRGLLSDAIKGATSEFALNTFECNPDPSERLLKPLSAFIGMNSEMRELAAVVSRDIYLHNPNIKWNDIIGLDAAKQLVKEAVVYPIRYPQLFTGILSPWKGLLLYGPPGTGKTLLAKAVATECKTTFFNISASTIVSKWRGDSEKLVRVLFELARYHAPSTIFLDELESVMSQRGMVPGGEHEGSLRMKTELLVQMDGLARSEDLVFVLAASNLPWELDCAMLRRLEKRILVDLPSQEARQAMIYHWLPPVSKNHALELHTQLEYSVLSQETEGYSGSDIKLVCREAAMRPVRKIFSVLENNQSESNNLPGIQLDTVTTQDFLDVLAHTKPSAKNLTERYLAWQEKFESV

The chains behind the UniProt entries cited, without tags or fusion partners. Residues count along the entry.
UniProt Q8K0T4: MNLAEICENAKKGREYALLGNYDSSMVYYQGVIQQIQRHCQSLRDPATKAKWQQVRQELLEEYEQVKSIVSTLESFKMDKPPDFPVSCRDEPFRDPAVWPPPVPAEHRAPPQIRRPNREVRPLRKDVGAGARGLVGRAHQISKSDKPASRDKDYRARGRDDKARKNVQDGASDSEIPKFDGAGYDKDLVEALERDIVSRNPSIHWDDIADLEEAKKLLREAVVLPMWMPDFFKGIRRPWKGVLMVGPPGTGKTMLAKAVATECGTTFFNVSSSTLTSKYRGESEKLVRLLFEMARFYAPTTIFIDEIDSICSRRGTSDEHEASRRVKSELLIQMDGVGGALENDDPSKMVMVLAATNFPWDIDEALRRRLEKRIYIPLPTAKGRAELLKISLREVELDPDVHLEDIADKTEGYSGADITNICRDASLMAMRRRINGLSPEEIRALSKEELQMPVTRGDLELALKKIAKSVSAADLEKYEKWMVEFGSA
UniProt Q9WV86: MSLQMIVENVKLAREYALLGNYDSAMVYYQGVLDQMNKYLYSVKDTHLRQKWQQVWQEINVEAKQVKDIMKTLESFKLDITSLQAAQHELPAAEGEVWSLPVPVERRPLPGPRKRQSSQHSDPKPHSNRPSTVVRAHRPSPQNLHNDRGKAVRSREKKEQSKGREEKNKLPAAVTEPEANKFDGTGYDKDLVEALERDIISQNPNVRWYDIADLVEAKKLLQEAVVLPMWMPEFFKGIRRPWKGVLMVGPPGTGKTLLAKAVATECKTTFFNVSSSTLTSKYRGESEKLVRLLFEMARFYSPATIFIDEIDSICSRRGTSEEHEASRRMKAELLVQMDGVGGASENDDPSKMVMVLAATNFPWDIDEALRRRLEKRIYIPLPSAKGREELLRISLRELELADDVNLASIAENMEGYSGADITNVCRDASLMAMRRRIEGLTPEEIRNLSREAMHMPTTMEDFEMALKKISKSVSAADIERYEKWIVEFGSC
UniProt Q8BG40: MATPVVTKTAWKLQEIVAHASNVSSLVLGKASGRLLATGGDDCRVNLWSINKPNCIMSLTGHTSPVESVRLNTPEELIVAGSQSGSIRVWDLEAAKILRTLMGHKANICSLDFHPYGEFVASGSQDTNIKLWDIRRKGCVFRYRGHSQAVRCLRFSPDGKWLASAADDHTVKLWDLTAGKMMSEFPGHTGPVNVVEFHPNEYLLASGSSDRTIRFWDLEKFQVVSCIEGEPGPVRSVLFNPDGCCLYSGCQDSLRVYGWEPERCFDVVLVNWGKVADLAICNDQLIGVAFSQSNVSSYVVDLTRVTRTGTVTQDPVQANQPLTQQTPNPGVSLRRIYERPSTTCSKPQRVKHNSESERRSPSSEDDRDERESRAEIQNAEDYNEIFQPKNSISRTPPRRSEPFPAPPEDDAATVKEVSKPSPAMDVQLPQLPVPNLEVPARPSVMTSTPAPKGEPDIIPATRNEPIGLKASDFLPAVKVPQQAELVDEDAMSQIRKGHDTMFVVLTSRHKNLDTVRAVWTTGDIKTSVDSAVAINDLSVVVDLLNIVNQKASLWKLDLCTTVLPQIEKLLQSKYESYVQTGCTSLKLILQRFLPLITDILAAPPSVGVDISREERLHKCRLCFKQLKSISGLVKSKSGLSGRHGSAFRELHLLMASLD
UniProt Q3V140, residues 26-540: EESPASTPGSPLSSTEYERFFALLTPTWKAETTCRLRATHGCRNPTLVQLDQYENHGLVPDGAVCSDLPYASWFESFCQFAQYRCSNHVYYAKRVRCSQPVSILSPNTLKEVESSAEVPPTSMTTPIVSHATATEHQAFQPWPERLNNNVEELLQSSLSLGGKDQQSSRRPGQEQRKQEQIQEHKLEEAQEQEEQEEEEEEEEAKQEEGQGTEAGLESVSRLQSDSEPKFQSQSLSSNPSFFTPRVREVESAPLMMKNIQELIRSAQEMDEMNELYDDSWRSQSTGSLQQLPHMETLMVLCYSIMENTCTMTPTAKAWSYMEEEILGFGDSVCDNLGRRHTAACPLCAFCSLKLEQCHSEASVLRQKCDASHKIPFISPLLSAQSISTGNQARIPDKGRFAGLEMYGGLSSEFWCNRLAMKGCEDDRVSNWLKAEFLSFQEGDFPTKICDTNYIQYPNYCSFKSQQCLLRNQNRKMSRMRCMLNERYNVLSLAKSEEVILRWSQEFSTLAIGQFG
UniProt Q9WUL7: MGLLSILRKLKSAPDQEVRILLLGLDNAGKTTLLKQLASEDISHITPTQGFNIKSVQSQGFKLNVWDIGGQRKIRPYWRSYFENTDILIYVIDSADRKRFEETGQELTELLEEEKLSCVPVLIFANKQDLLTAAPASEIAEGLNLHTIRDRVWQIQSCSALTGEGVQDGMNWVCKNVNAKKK
UniProt P17156: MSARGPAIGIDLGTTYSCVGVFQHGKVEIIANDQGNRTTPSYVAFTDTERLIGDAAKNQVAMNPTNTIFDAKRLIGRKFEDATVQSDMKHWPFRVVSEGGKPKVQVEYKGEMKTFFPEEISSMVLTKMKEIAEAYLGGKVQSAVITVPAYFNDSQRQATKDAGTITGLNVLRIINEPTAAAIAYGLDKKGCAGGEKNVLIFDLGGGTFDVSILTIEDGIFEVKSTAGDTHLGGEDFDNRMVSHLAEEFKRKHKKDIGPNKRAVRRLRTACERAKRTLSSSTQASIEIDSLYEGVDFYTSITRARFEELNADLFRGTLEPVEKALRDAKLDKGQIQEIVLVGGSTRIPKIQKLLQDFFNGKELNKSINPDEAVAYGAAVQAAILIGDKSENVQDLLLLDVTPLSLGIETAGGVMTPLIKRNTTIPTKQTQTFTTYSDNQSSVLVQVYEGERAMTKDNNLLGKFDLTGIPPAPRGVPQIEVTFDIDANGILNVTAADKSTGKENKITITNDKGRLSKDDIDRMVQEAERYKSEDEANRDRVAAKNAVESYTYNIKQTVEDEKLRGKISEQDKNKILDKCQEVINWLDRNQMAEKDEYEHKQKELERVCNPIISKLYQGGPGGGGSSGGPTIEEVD
UniProt O35685: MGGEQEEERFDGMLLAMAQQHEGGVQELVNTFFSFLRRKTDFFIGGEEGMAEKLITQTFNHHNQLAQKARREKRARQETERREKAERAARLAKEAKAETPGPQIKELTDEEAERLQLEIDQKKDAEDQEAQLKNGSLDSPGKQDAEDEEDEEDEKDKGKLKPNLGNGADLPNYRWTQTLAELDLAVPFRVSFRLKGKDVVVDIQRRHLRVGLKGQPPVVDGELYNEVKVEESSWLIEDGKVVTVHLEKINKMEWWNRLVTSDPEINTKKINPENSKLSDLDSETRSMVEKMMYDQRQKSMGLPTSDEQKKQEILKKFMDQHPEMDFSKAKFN
UniProt F8VPN2: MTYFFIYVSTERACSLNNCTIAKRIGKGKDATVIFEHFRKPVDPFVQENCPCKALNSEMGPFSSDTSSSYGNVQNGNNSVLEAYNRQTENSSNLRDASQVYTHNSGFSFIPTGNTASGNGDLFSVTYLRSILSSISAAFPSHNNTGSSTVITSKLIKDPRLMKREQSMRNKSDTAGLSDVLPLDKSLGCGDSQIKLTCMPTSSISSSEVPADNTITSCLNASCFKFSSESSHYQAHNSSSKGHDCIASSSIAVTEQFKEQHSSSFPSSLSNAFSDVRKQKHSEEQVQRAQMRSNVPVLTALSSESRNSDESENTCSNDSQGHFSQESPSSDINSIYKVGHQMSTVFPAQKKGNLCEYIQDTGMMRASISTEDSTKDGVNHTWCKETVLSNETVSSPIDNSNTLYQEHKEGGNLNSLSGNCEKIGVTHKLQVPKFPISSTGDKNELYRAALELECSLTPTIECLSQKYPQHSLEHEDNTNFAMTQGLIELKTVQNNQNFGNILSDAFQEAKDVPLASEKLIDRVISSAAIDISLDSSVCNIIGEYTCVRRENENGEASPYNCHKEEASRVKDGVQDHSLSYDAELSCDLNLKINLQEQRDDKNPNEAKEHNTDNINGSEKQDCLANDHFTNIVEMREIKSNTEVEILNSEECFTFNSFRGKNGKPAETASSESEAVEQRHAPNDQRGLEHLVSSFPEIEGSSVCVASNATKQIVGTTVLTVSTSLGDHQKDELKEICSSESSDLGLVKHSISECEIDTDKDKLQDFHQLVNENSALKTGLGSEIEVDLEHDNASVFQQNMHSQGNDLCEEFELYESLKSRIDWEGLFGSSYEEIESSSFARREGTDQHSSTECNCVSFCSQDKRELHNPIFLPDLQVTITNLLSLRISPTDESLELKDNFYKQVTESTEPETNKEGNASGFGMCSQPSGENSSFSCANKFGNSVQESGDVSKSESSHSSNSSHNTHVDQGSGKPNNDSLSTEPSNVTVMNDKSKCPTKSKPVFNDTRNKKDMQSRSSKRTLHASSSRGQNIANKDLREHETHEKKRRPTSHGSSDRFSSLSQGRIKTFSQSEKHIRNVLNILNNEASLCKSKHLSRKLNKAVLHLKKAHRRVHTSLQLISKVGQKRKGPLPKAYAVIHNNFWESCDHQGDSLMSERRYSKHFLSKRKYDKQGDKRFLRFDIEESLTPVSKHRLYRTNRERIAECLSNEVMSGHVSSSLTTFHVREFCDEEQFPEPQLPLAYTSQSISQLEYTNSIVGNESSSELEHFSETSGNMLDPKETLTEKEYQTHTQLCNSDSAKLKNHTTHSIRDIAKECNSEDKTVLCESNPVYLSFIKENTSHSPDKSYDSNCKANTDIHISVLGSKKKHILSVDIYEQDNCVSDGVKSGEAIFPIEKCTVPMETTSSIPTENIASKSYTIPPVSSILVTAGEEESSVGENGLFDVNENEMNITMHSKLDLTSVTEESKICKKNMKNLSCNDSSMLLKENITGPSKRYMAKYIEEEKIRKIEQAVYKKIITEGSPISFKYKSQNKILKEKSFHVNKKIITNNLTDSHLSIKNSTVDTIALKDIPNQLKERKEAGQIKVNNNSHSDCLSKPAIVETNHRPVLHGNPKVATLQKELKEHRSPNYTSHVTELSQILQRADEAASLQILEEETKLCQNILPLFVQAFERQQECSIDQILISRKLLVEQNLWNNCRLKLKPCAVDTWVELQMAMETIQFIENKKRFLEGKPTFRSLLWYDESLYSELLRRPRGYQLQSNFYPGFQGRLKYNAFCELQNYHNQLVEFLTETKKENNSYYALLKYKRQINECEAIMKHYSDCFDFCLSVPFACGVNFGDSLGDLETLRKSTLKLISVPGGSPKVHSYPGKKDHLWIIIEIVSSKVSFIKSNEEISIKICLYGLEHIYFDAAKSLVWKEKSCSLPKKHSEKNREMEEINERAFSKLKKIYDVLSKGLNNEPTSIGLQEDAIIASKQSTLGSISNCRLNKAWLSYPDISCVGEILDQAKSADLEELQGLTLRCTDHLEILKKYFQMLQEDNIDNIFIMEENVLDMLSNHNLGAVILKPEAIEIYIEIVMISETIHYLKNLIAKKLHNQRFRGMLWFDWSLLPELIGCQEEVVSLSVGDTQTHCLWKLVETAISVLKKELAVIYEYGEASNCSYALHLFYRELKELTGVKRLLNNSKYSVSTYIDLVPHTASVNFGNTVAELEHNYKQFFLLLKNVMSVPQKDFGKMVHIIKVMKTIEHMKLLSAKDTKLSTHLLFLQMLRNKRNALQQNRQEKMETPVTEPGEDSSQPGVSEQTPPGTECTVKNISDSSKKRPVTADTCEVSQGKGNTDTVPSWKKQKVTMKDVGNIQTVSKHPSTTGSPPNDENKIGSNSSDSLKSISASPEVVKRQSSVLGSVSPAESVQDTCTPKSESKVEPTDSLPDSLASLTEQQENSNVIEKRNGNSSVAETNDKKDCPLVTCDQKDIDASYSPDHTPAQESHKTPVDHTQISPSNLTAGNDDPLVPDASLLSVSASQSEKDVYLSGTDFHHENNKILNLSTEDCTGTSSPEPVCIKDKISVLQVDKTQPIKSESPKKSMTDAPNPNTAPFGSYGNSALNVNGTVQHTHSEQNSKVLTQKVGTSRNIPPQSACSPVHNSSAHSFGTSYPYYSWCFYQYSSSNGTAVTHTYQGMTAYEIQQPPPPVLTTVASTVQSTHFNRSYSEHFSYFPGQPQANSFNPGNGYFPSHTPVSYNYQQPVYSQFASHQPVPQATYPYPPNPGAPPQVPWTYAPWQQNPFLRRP

Columns and labels:
Test in all cases: affinity purification with mass spectrometry
[1] = molecular target: KATNAL1 (mouse (endogenous in testis)) (UniProt Q8K0T4)
[2] = molecular target: KATNA1 (mouse (endogenous in testis)) (UniProt Q9WV86)
[3] = molecular target: KATNB1 (mouse (endogenous in testis)) (UniProt Q8BG40)
[4] = molecular target: KATNA1 (mouse (endogenous in testis)) (UniProt Q9WV86); remark: listed apart in the source
[5] = molecular target: KATNAL1 (mouse (endogenous in testis)) (UniProt Q8K0T4); remark: listed apart in the source

Row | Molecule | binding [1] | binding [2] | binding [4] | other results
1 | ACRBP (from UniProt Q3V140 26-540) | binds | – | – | –
2 | ARL3 (from UniProt Q9WUL7 1-182) | – | binds | – | –
3 | CAPZA2 (from UniProt P47754 1-286) | binds | binds | – | –
4 | HSPA2 (from UniProt P17156 1-633) | – | binds | – | binding [3]: binds
5 | KATNAL1 (from UniProt Q8K0T4 1-488) | – | no binding | – | binding [3]: binds
6 | KATNB1 (from UniProt Q8BG40 1-658) | binds | – | – | –
7 | NUDC (from UniProt O35685 1-332) | binds | binds | – | binding [3]: binds
8 | TEX15 (from UniProt F8VPN2 1-2785) | – | binds | – | –
9 | B1 | – | – | binds | –
10 | B2 | – | – | binds | –
11 | B3 | – | – | binds | binding [5]: binds
12 | B4 | – | – | no binding | binding [5]: no binding
